Measurements taken from patent publication US20020143164A1, “Ras activator nucleic acid molecules, polypeptides and methods of use” (priority 1999, published 2002).
At least one structure is not confirmed: it was looked up by name or label, or the drawing left a doubt.

Biological target: T1, GRF4 (Homo sapiens, UniProt Q9Y4G8)
T1 construct: Flag, HA or myc tags was added to the N-terminus of full length GRF4 using PCR; expressed in transfected cells; host or cells: HEK-293T
T1 sequence (Q9Y4G8 1-1499): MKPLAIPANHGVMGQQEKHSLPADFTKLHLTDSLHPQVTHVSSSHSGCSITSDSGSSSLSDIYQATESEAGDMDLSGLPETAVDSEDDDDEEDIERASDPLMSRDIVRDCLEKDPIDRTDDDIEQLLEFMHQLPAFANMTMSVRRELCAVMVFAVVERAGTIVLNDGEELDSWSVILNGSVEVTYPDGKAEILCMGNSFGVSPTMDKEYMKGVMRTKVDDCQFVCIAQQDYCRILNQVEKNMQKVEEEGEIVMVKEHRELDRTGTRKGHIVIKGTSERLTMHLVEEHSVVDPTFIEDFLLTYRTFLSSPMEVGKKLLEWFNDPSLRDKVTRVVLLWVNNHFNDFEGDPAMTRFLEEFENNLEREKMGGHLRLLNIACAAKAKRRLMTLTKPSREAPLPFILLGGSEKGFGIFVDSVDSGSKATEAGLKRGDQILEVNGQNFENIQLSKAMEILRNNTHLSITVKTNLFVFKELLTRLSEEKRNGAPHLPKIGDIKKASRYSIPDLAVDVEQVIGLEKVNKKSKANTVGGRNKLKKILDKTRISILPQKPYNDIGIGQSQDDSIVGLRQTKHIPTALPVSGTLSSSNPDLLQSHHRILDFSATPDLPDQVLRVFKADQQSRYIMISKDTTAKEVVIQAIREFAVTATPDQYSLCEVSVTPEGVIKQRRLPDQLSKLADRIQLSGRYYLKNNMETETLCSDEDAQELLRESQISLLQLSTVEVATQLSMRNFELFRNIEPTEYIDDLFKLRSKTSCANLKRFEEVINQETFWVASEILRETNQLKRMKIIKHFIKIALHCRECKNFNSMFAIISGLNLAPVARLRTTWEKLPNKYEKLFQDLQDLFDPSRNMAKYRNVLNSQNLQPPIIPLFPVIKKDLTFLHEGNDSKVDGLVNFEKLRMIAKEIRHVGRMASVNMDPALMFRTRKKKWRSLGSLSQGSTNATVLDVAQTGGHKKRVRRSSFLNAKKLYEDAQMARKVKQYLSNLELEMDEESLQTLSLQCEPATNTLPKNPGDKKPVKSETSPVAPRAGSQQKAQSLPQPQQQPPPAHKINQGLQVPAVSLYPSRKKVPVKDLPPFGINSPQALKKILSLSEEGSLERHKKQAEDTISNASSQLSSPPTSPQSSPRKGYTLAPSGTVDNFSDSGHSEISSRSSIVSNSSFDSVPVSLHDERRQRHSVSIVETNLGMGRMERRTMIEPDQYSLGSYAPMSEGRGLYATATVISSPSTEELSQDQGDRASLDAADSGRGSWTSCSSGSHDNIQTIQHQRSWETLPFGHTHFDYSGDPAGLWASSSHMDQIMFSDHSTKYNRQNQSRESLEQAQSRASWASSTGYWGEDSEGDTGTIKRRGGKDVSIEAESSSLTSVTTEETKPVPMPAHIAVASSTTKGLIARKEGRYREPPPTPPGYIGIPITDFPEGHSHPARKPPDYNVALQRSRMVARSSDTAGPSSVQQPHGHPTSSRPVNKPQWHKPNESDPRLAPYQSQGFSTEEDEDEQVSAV
Test: Ras activation assay in living cells (GST-Raf1-RBD pull-down), treatment of GRF4-transfected cells
Format: cell-based
Conditions: forskolin 50 μM plus IBMX 100 μM, 15 min
Experimental: Cells were then lysed and lysate incubated with immobilized Ras binding domain (RBD) of Raf1 (GST-Raf1-RBD), which binds activated (GTP-bound) Ras. Co-precipitated activated ras was then detected with anti Ras antibodies (Quality Biotech) (upper panel). Lower 2 panels depict the amounts of total endogenous Ras and of the transfected GRF4 (detected with anti Ras and anti Flag antibodies, respectively).
Cells were transfected (or not) with Flag-GRF4 and serum-starved overnight as in (a) above, pre-treated (or not) with the PKG inhibitors H8 (5 μM) or Rp-cGMPS (25 μM) and then treated (or not) with the cGMP analogue 8-Br-cGMP (500 μM), as in (a) above. Activated Ras was then precipitated with GST-Raf1-RBD (upper panel), as in (a). Lower panels show total endogenous Ras and GRF4 expressed in the cells. […]
HEK-293T cells were transfected as above, serum starved overnight and then subjected to various treatments, as described in the text. […] GTP in the lysates was determined using activation specific probes as described. Briefly, to determined the levels of active Ras (Ras-GTP) in cell, sepharose-bound GST fusion protein of the Ras-binding domain (RBD) of Raf-1 (GST-Raf1-RBD; Upstate Biotechnology Inc.) was used to precipitate Ras-GTP from cell lysates, and the amount of Ras-GTP determined by immunoblotting with anti Ras antibodies (Quality Biotech). […]

For `C=C[C@@]1(C)CC(=O)[C@]2(O)[C@@]3(C)[C@@H](O)CCC(C)(C)[C@@H]3[C@H](O)[C@H](OC(C)=O)[C@@]2(C)O1` [forskolin], the “Activation of Ras by GRF4 following elevation of intracellular cAMP” value was “also seen”.
